In patent US20060205805A1, “Crystalline forms of atorvastatin” (priority 2000, published 2006):
Structures can show the parent of a compound that is named as a salt.

Details: about 40° C. / about 75% relative humidity for at least about 1 month, or about 25° C. / about 60% relative humidity for at least about 6 months; stable = no more than about 0.01% (w/w) AED formed

## CC(C)c1c(C(=O)Nc2ccccc2)c(-c2ccccc2)c(-c2ccc(F)cc2)n1CCC(O)C[C@@H](O)CC(=O)O (stereo in doubt) [Form A, [R-(R*,R*)]-2-(4-fluorophenyl)-beta,delta-dihydroxy-5-(1-methylethyl)-3-phenyl-4-[(phenylamino)carbonyl]-1H-pyrrole-1-heptanoic acid calcium salt]
  stability against the formation of the impurity AED: stable
